Assay results: the supplement of paper PMC11732987, “Enantioselective OTUD7B fragment discovery through chemoproteomics screening and high-throughput optimisation” (Communications Chemistry, 2025)
The list shows a part of the results. The data scatter; read single values as rough.

Sequences of proteins named here, by UniProt entry; tags and fusion partners are left off. A change or cut given only in a name is not applied to a line headed by its entry.
UniProt P19174: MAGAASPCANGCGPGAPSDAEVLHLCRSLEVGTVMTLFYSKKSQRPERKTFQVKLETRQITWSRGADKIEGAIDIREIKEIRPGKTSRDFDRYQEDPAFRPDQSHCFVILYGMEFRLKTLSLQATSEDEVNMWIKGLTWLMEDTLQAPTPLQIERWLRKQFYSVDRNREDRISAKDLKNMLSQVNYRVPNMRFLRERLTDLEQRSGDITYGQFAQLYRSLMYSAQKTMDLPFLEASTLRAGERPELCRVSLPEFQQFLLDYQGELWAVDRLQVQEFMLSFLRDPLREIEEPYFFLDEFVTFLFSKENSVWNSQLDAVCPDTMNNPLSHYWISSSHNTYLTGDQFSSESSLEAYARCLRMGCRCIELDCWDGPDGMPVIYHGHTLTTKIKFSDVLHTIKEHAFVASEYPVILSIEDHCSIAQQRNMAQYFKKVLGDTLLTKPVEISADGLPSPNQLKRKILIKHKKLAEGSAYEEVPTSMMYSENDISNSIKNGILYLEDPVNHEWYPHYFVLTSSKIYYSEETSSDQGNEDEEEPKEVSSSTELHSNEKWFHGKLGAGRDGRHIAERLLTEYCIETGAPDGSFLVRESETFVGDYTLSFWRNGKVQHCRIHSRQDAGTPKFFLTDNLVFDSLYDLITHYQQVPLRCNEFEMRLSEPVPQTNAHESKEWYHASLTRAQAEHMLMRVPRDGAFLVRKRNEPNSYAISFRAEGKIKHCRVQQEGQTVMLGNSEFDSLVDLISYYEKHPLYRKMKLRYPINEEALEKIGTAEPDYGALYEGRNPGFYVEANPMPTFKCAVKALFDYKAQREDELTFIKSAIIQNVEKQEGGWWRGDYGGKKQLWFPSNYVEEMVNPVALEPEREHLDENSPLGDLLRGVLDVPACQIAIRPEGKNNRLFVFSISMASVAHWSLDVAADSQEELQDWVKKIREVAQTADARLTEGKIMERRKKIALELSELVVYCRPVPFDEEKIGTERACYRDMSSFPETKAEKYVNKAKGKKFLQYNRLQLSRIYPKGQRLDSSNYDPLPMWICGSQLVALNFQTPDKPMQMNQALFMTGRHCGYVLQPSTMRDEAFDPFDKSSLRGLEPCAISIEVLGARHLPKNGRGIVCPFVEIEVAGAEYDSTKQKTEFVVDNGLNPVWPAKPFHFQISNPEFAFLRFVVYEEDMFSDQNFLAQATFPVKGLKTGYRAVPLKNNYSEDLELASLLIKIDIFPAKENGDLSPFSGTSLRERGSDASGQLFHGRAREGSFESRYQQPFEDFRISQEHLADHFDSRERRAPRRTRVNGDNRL
UniProt P78356: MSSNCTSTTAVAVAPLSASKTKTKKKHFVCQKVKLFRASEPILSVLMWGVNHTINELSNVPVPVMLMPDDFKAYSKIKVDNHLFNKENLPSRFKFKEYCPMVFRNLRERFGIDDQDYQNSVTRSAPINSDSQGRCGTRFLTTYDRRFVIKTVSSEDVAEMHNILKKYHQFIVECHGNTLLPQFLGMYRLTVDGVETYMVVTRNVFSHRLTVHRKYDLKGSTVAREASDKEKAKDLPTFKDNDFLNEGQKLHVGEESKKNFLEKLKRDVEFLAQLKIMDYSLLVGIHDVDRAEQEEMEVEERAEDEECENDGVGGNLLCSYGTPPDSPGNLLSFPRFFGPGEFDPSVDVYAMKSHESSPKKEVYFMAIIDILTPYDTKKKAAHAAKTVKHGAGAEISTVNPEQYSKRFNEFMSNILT
UniProt P46020: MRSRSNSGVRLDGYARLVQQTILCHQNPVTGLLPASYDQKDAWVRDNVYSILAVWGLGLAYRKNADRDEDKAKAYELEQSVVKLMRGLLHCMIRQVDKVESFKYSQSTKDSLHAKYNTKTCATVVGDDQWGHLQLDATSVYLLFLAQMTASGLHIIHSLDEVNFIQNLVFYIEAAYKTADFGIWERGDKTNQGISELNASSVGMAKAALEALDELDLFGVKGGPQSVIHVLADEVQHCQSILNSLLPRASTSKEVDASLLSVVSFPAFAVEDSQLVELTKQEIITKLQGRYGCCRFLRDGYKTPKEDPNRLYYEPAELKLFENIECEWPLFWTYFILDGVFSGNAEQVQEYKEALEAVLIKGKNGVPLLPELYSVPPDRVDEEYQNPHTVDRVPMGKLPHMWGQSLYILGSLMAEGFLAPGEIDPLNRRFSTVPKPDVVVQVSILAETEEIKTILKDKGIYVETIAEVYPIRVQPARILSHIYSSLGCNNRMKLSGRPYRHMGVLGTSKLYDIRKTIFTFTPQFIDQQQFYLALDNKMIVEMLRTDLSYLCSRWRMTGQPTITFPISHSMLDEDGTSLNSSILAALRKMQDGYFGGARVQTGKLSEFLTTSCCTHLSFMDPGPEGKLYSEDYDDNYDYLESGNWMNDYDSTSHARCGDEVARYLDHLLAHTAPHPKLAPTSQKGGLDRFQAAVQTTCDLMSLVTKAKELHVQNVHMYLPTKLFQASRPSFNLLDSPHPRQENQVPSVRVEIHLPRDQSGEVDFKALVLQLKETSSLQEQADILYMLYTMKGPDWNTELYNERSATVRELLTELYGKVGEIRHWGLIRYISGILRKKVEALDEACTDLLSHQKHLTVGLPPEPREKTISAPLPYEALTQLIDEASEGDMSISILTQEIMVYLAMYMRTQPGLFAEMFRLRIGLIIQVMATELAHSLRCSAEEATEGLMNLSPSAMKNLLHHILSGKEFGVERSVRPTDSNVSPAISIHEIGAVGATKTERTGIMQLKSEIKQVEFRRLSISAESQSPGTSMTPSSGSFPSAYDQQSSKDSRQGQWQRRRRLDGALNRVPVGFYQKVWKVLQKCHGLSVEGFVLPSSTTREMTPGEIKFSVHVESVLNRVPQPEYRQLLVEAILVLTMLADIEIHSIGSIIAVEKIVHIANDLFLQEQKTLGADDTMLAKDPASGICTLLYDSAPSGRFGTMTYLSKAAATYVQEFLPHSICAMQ
UniProt Q6P1K2: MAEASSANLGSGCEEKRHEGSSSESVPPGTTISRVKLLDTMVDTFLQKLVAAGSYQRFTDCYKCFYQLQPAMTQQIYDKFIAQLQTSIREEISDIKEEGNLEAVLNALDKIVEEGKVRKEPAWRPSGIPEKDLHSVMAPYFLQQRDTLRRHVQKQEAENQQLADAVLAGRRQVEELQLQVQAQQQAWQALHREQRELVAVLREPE
UniProt O75925, whole entry, looked up: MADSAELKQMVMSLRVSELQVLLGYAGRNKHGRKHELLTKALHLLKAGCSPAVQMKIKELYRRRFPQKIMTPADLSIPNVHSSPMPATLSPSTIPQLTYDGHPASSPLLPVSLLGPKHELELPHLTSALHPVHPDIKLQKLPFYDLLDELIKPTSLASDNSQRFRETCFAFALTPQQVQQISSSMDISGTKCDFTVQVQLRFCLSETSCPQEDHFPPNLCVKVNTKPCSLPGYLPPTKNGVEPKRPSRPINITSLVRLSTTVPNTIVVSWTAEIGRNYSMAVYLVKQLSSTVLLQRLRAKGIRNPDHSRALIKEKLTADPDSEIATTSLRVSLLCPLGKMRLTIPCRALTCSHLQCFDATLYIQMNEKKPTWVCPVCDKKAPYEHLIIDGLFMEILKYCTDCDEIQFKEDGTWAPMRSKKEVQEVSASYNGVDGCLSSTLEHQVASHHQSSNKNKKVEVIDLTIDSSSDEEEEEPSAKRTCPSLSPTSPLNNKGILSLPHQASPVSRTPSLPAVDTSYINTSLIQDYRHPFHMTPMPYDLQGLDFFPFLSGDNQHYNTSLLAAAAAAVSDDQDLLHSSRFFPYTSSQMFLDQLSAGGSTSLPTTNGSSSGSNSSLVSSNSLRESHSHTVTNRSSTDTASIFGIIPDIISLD
UniProt Q9NVS9: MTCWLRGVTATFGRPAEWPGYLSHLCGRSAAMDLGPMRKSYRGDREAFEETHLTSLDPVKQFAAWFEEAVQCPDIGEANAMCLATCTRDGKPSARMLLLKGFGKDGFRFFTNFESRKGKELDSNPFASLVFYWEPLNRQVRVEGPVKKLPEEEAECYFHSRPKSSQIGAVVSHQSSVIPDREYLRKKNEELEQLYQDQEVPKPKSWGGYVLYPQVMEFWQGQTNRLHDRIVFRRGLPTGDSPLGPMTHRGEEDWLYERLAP
UniProt Q15054: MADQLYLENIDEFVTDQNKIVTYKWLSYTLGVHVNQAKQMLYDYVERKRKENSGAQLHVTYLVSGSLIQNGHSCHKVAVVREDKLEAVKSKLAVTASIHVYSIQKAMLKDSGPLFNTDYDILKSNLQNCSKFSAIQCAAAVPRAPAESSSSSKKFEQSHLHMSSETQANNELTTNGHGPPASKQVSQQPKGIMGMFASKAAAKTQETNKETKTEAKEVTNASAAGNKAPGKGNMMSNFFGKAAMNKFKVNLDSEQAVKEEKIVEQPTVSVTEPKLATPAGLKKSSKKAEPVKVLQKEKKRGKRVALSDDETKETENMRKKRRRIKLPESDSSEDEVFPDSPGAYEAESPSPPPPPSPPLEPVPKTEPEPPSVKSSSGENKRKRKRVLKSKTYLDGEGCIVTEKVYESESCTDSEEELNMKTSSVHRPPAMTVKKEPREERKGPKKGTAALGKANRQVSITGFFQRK
UniProt O15031: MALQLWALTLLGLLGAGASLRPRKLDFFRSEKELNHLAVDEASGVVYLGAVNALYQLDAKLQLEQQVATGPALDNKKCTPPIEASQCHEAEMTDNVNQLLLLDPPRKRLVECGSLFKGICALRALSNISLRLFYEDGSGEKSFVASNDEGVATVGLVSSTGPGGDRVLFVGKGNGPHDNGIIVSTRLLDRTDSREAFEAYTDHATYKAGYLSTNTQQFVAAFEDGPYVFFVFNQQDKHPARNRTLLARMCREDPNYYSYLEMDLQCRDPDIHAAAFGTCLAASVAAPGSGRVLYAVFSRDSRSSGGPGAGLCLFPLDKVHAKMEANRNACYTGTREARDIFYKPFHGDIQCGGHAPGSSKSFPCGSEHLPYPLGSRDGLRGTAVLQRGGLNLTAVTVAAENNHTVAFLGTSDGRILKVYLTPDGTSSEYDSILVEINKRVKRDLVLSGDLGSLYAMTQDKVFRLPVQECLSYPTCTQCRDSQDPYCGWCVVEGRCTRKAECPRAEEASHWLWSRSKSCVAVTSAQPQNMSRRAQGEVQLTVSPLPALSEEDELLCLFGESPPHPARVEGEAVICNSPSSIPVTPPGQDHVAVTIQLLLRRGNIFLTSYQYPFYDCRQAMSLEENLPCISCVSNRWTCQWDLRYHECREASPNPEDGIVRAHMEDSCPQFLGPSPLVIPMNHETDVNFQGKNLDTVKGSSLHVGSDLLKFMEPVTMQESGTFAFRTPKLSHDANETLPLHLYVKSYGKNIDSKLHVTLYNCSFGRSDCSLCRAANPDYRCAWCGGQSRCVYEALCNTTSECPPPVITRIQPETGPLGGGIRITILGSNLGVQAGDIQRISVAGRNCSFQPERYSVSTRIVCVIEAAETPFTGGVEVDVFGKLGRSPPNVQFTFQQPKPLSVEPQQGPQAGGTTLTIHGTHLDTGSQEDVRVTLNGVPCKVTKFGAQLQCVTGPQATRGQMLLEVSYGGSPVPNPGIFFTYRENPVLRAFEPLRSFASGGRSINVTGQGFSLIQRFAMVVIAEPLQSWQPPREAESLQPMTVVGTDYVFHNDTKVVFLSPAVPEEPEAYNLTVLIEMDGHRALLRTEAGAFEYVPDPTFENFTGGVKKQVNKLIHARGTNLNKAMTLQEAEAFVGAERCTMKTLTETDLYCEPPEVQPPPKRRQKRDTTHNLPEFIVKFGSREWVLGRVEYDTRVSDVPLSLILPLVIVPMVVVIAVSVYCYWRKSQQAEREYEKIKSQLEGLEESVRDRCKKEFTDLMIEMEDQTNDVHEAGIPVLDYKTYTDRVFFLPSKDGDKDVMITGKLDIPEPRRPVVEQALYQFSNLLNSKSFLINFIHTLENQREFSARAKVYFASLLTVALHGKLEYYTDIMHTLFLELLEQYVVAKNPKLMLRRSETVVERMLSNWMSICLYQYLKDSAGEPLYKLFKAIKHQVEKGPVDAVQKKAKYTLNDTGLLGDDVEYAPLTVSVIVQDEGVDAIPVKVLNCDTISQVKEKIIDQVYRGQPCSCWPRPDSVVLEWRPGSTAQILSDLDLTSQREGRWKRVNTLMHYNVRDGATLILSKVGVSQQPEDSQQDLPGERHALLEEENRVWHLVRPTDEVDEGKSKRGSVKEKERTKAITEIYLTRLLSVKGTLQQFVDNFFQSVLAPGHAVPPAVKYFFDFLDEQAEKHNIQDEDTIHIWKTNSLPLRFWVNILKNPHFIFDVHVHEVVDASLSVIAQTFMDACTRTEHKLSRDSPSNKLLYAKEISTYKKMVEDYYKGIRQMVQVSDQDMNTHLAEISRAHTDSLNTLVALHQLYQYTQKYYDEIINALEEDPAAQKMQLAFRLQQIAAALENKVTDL

compound: ClCC(=O)N[C@@H]1CCCc2ccccc12; test: log2 mean competition ratio of IA-DTB cysteine labelling (DMSO/compound) (log2 ratio); higher = stronger cysteine engagement by compound; conditions: 50 µM; treatment time: 4 h; cell line lysate: HEK293T
Method: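 IA-DTB competitive cysteine chemoproteomics in HEK293T RIPA lysate. Lysates were treated with compound 29 or 30 at 50 or 200 µM for 4 h, then IA-DTB (500 µM, 1 h), trypsin-digested, NeutrAvidin-enriched and analysed by diaPASEF. Competition ratio = intensity DMSO / intensity compound (n=4 treated, n=64 DMSO); binding: mean log2 CR ≥ 1 and p ≤ 0.05 plus QC filters. Target is the cysteine site.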

Target | log2 mean competition ratio
PHGDH C295 | -0.361
PLCG1 C247 (UniProt P19174) | -0.158
POLR1B C855 (UniProt Q9H9Y6) | -0.187
PLCE1 C375 | -0.072
PHF3 C186 (UniProt Q92576) | 0.151
PLS3 C463 | -0.23
PIP4K2B C5 (UniProt P78356) | 0.299
POLA1 C514 (UniProt P09884) | 0.2
PHKA1 C844 (UniProt P46020) | -0.377
PMF1 C13 (UniProt Q6P1K2) | -0.171
PIAS1 C49 (UniProt O75925) | -0.146
PHF8 C684 (UniProt Q9UPP1) | 0.073
PLK1 C212 (UniProt P53350) | 0.389
POLR1A C733 (UniProt O95602) | -0.34
PNPO C156 (UniProt Q9NVS9) | 0.153
POLD3 C129 (UniProt Q15054) | 0.00385
PIK3CA C862 (UniProt P42336) | -0.262
PLXNB2 C1484 (UniProt O15031) | -0.0478
PIK3C2A C804 (UniProt O00443) | -0.117
PHKA1 C1185 (UniProt P46020) | -0.19

same assay, conditions: 200 µM; treatment time: 4 h; cell line lysate: HEK293T

Target | log2 mean competition ratio
PHGDH C295 | 0.0796
PLCG1 C247 (UniProt P19174) | 0.0768
POLR1B C855 (UniProt Q9H9Y6) | -0.0814
PLCE1 C375 | -0.191
PHF3 C186 (UniProt Q92576) | -0.0154
PLS3 C463 | -0.051
PIP4K2B C5 (UniProt P78356) | -0.112
POLA1 C514 (UniProt P09884) | 0.445
PHKA1 C844 (UniProt P46020) | 0.0662
PMF1 C13 (UniProt Q6P1K2) | 0.0117
PIAS1 C49 (UniProt O75925) | 0.0266
PHF8 C684 (UniProt Q9UPP1) | 0.387
PLK1 C212 (UniProt P53350) | 0.412
POLR1A C733 (UniProt O95602) | -0.0772
PNPO C156 (UniProt Q9NVS9) | 0.036
POLD3 C129 (UniProt Q15054) | 0.21
PIK3CA C862 (UniProt P42336) | -0.0174
PLXNB2 C1484 (UniProt O15031) | 0.0854
PIK3C2A C804 (UniProt O00443) | 0.0171
PHKA1 C1185 (UniProt P46020) | -0.286
